These are yes or no findings as the source states them, for the method shown. Binding seen in cells or lysates may run through a third protein. Some results given as binding are weak or reduced against the parent protein; the word gives no strength. Tags and fused reporters may be left off the sequences shown.
Assays:
Assay in all cases: co-IP; 293T cells expressing FLAG-IFT88 and HA-tagged DGK isoforms; anti-HA immunoprecipitation, anti-FLAG blot; RIPA lysis
[1] = target: HA-DGKα (pCMV5-HA-hDGKα) (human) (UniProt P23743)
[2] = target: HA-DGKγ (pCMV5-HA-hDGKγ) (human) (UniProt P49619)
[3] = target: T1, HA-DGKδ (pCMV5-HA-hDGKδ) (human) (UniProt Q16760)
T1 sequence: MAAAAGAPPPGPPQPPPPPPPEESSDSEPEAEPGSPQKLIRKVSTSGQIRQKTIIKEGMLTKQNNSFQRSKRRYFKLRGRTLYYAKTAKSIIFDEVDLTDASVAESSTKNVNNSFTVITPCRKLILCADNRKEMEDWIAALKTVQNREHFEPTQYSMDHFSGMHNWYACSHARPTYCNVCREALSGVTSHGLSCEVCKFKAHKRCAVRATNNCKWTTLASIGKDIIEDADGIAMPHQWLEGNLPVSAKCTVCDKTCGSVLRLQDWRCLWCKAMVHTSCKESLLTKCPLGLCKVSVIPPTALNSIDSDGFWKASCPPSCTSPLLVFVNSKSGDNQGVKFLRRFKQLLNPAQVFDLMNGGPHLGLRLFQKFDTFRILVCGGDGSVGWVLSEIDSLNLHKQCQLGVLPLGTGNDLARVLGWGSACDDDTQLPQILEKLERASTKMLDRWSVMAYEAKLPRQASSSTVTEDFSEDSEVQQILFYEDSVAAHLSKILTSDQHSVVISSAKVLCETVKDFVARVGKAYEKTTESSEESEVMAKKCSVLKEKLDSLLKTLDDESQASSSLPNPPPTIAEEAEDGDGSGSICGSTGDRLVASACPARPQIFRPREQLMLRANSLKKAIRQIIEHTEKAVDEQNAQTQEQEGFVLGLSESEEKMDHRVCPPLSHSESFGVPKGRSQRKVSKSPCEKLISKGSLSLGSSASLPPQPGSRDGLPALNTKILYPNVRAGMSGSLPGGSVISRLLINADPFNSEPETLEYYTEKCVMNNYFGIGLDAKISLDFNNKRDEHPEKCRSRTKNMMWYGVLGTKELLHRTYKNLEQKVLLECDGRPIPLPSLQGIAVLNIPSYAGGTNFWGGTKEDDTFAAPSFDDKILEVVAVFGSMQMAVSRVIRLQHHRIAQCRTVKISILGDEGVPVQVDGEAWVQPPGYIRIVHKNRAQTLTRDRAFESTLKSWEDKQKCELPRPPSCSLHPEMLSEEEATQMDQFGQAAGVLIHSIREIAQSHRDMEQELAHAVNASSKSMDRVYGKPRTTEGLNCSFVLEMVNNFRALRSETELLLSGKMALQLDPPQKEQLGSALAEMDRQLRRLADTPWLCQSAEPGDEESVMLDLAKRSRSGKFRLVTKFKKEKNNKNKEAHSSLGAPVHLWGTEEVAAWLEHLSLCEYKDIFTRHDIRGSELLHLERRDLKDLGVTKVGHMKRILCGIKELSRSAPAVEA

Chains of the proteins cited; added tags and fusions are not shown.
UniProt P23743: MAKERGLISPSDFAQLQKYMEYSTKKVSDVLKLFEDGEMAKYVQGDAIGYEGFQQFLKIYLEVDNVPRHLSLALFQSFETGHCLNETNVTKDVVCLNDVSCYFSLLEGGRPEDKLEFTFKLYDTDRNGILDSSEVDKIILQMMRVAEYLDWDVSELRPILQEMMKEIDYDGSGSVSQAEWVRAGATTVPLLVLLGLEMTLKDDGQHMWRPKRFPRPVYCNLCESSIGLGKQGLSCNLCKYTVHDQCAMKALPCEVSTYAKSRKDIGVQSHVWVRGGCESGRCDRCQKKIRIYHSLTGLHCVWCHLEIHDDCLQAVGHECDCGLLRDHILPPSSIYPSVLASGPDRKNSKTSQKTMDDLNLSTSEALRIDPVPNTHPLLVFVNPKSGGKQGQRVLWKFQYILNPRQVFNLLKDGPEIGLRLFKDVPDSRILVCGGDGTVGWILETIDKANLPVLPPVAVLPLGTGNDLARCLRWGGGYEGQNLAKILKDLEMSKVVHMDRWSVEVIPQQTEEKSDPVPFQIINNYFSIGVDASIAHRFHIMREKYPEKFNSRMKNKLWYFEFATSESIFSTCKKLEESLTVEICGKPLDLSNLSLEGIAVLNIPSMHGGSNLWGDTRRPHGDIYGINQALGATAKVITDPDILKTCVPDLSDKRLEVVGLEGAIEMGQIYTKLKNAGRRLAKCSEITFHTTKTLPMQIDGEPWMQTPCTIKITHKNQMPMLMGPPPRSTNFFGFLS
UniProt P49619: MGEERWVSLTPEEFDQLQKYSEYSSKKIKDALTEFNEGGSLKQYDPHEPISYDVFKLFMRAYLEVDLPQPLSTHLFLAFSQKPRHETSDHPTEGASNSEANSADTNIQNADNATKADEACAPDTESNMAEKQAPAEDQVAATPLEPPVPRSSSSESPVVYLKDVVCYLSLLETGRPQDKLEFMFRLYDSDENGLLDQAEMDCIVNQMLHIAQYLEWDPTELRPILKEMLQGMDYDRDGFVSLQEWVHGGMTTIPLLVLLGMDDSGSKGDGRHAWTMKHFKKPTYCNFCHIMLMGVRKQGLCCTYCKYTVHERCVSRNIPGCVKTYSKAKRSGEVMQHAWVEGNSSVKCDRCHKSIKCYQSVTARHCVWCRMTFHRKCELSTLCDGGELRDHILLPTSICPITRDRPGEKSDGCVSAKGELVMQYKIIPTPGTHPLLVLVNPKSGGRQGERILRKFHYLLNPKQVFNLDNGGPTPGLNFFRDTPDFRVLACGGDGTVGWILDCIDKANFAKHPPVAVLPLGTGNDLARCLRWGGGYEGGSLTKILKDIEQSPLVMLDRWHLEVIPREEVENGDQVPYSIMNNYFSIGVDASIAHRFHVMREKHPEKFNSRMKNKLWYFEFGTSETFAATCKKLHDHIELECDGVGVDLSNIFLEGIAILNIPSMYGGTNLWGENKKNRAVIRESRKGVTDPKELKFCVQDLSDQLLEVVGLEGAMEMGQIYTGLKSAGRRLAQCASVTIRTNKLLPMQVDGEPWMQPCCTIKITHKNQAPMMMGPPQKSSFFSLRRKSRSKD
UniProt Q13574: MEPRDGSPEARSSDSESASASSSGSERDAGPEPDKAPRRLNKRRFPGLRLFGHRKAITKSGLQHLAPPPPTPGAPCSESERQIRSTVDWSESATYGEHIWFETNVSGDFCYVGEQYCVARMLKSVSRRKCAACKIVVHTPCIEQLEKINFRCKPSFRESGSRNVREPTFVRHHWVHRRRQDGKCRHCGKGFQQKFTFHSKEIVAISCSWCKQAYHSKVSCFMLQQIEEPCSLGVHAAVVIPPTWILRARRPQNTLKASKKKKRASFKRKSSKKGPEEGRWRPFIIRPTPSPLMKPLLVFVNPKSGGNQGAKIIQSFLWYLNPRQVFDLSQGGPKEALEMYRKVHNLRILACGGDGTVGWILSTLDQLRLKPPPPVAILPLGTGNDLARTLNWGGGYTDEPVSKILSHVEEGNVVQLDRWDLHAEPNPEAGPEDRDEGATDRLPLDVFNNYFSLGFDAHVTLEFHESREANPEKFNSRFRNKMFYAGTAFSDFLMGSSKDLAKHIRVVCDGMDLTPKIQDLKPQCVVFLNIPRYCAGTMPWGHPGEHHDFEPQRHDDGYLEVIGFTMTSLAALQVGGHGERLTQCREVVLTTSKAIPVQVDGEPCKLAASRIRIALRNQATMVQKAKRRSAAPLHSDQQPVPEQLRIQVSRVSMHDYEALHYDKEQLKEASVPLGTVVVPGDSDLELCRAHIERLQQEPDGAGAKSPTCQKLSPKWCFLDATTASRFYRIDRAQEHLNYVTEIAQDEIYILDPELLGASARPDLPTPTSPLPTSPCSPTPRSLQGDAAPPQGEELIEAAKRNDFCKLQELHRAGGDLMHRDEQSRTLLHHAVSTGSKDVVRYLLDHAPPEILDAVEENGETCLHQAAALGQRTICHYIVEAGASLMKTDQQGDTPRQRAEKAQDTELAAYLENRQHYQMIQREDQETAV
UniProt O75912: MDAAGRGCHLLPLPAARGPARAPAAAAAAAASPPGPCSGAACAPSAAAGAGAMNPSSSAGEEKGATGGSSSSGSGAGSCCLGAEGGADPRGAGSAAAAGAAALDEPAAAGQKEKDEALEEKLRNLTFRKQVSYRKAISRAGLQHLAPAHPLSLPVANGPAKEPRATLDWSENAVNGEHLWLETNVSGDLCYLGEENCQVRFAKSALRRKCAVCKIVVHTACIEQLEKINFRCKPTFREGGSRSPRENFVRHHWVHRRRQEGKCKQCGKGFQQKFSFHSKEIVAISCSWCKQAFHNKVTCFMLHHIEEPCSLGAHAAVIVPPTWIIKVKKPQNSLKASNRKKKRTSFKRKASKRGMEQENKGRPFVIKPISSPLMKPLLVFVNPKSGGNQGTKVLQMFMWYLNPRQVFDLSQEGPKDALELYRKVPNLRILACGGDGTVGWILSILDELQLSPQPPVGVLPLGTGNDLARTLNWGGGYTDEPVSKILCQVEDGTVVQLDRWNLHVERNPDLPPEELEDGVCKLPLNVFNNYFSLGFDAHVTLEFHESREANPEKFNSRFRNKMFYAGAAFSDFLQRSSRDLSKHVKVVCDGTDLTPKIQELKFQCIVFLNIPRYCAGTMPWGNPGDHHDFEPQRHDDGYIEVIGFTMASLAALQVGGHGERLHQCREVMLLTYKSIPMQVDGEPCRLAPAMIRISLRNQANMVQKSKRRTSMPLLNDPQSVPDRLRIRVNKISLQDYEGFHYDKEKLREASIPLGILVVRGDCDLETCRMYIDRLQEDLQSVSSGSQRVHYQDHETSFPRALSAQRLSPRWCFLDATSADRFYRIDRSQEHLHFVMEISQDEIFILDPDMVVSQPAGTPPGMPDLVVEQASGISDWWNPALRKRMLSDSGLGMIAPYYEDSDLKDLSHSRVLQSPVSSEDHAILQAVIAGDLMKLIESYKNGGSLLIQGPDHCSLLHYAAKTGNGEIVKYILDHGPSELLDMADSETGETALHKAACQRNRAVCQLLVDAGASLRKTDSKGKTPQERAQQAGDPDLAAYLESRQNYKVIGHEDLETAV

[4] = target: T2, HA-DGKε (pCMV5-HA-hDGKε) (human) (UniProt P52429)
T2 sequence: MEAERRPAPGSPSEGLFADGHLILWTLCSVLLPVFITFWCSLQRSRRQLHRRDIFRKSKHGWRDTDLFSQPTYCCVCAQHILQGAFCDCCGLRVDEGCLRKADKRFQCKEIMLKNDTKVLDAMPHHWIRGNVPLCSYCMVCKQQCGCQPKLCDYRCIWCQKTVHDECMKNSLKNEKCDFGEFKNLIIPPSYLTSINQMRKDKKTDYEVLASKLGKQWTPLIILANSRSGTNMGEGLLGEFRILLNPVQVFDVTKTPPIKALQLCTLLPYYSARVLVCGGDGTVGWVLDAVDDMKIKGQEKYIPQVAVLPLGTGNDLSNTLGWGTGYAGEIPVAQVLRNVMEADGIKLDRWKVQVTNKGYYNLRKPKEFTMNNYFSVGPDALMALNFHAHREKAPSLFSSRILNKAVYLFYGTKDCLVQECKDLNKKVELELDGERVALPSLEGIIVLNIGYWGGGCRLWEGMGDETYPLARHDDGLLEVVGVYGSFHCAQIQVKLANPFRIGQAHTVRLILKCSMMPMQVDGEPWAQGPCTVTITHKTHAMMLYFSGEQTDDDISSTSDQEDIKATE

[5] = target: HA-DGKζ (pCMV5-HA-hDGKζ) (human) (UniProt Q13574)
[6] = target: HA-DGKι (pCMV5-HA-hDGKι) (human) (UniProt O75912)

binding [1]: binds
binding [2]: binds
binding [3]: binds
binding [4]: binds
binding [5]: binds
binding [6]: binds
B1: FLAG-IFT88 (pCMV-IFT88-3XFLAG) (protein, UniProt Q61371 1-824)
chain: MENVHLAPETDEDDLYSGFNDYNPAYDTEELENDTGFQQAVRTSHGRRPPVTAKIPSTAVSRPIATGYGSKTSLTSSMGRPMTGTIQDGVARPMTAVRAAGFSKAALRGSAFDPLGQSRGPAPPLEAKNEDSPEEKIRQLEKKVNELVEESCIANSCGDLKLALEKAKDAGRKERVLVRQREQVTSPENINLDLTYSVLFNLASQYSANEMYAEALNTYQVIVKNKMFSNAGRLKVNMGNIYLKQRNYSKAIKFYRMALDQIPSVHKEMRIKIMQNIGITFIKTGQYSDAINSFEHIMSMAPSLKAGFNLILSCFAIGDREKMKKAFQKLIAVPLEIDEDDKYISPSDDPHTNLLIEAIKNDHLRQMERERKAMAEKYIMTAAKLIAPVIEASFAVGYNWCVEVVKASQYVELANDLEINKAITYLRQKDFNQAVDTLKMFEKKDSRVKSAAATNLSFLYYLENEFAQASSYADLAVNSDRYNPSALTNKGNTVFANGDYEKAAEFYKEALRNDSSCTEALYNIGLTYKKLNRLDEALDSFLKLHAILRNSAQVLCQIANIYELMEDPNQAIEWLMQLISVVPTDSQALSKLGELYDSEGDKSQAFQYYYESYRYFPSNIEVIEWLGAYYIDTQFCEKAIQYFERASLIQPTQVKWQLMVASCFRRSGNYQKALDTYKEIHRKFPENVECLRFLVRLCTDIGLKEVQEYATKLKRLEKMKEMREQRIKSGRDSSGGSRSKREGSAGSDSGQNNSASSKSERLSAKLRALPGTDEPYESSGNKEIDASYVDPLGPQIERPKTAAKKRIDEDDFADEELGDDLLPE

Reference: article PMC5509727
